Part of at least one peptide drawing is inferred or uncertain, most often the ends. No end group written: not given here.
What was measured:
[1] = tested on: hepatitis B virus (HBV) ayw strain; experiment: HBV replication assay in HepG2-2.2.15 cells (TaqMan PCR of secreted HBV DNA); type: cell-based; conditions: peptide 10 micrograms per ml, six days, HBV DNA in supernatant
HCMV strain AD169 = experiment: HCMV plaque reduction assay in MRC-5 cells; type: cell-based; conditions: HCMV AD169 in MRC-5 cells; peptide 10 micrograms per ml; 7-10 days

Substance: SFLLRNPNDKYEPF-OH [TRAP-14]
- % inhibition of HBV replication in HEP G2 cells [1]: 0.2%
- % plaque reduction (HCMV strain AD169): 0.0%
